Measured values reported in PubChem BioAssay (EPA / NIEHS).
Inconclusive means that the source gave no clear call. Such entries were picked first, then a sample of the others. Potencies of inconclusive entries are doubtful fits and often do not repeat. The source made the active and inactive calls. How the source made its calls: active means hit-call score of the fitted dose curve at least 0.9, where 1 is the maximum; inconclusive means response in the unintended direction; inactive means score below 0.9.

Assay: CLD_ACTIN_24hr: CellzDirect (CLD) Gene Expression Assay for Baseline Control (Actin) at 24 hours (AID 2283670)
Description: CLD_24hr is a cell-based, multiplexed-readout assay that uses hepatocyte, a human liver primary cell, with measurements taken at 24 hours after chemical dosing in a 96-well plate.CLD_ACTIN_24hr is one of 16 assay component(s) measured or calculated from the CLD_24hr assay. It is designed to make measurements of mRNA induction, a form of inducible reporter, as detected with chemiluminescence signals by Quantitative Nuclease Protection Assay (qNPA) technology.Data from the assay component CLD_ACTIN_24hr was analyzed at the endpoint, CLD_ACTIN_24hr, in the positive analysis fitting direction relative to DMSO as the negative control and baseline of activity. Using a type of inducible reporter, gain-of-signal activity can be used to understand changes in the reporter gene as they relate to the gene ACTA1. Furthermore, this assay endpoint can be referred to as a secondary readout, because this assay has produced multiple assay endpoints where this one serves a background control function. To generalize the intended target to other relatable targets, this assay endpoint is annotated to the background measurement intended target family, where subfamily is baseline control.
Human hepatocyte cultures were treated daily for two consecutive days with fresh dosing solutions containing appropriate concentrations of the 320 ToxCast chemicals (chemical identities were blinded to CellzDirect and other ToxCast collaborators), vehicle control (0.2% DMSO), and positive control inducers as summarized in Table 1. Due to the large number of treatment groups and chemicals examined, the ToxCast chemicals were divided into two groups (spanning two independent cultures of hepatocytes from separate donor preparations (Hu778: ToxCast plates 1 and 2; Hu776: ToxCast plates 3 and 4). Each preparation of human hepatocyte cultures was treated with respective vehicle control, medium only control, set of six positive controls/reference chemicals for the five hepatic receptor pathways, and a subset of eight of the ToxCast chemicals (indoxacarb, pyrithiobac-sodium, norflurazon, cyhalofop-butyl, methomyl, thiram, acetochlor, and propiconazole). These replicate data, coupled with internal replicates designed within the blinded ToxCast chemical library, provided additional data to evaluate interindividual differences between hepatocyte preparations and their potential impact on chemical profiles.Cell morphology and integrity were evaluated using phase-contrast microscopy as an indicator of hepatocyte cell health (Tyson & Green, 1987). Cultures for each treatment group (i.e., media, vehicle [0.2% DMSO], positive control inducers [multiple concentrations], and the ToxCast chemicals [multiple concentrations]) were observed and cell morphology was assessed relative to vehicle control cultures at each harvest time point (0, 6, 24, or 48 h). […] Images were evaluated at the conclusion of the study to assess changes in cell integrity and account for the effects of chemical exposure on uncharacteristic changes in concentration-dependent gene expression profiles. The results from these determinations of apparent cytotoxicity were annotated (yes/no) alongside the corresponding qNPA data for reference.At the conclusion of each treatment period, hepatocyte cultures (96-well) were washed with 1 volume of HBSS, lysed by addition of 25 ul ArrayPlate lysis buffer (HTG, Tucson, AZ), and 70 ul/well of Denaturation Oil, denatured by incubation at 95C for 10 min, and frozen at approximately -70C until analysis by nuclease protection assay (qNPA) (Roberts et al., 2007). For qNPA analysis, cell lysates were thawed at 50C for approximately 30 min, qNPA probes were added, and samples were incubated at 95C for 10 min to begin the detection process by denaturing the target RNA, dissociating the duplexes and secondary structure hybridization. At the conclusion of the hybridization period, S1 nuclease reagent was added to each sample to digest all nonprotected nucleotides at 50C for 60-90 min. […]

Row | SMILES | AC50 | outcome
1 | CCN(Cc1c(F)cccc1Cl)c1c([N+](=O)[O-])cc(C(F)(F)F)cc1[N+](=O)[O-] | inconclusive: 2.24 µM | 
2 | C#CCOC(=O)[C@@H](C)Oc1ccc(Oc2ncc(Cl)cc2F)cc1 | inconclusive: 20 µM | 
3 | COC(=O)c1ccc(I)cc1S(=O)(=O)NC(=O)Nc1nc(C)nc(OC)n1 |  | inactive
4 | CCNc1nc(N)nc(Cl)n1 | inconclusive: 20 µM | 
5 | OB(O)O | inconclusive: 20 µM | 
6 | CCC(C)OC(=O)N1CCCCC1CCO (stereo unspecified) |  | inactive
7 | COC(=O)c1c(Cl)nn(C)c1S(=O)(=O)NC(=O)Nc1nc(OC)cc(OC)n1 |  | inactive
8 | CCCN(CCC)C(=O)SCC | inconclusive: 0.237 µM | inactive
9 | COC(=O)c1ccc(CNS(C)(=O)=O)cc1S(=O)(=O)NC(=O)Nc1nc(OC)cc(OC)n1 |  | inactive
10 | CCCCC(CC)CN1C(=O)C2C3C=CC(C3)C2C1=O (stereo unspecified) | inconclusive: 0.00421 µM | 
11 | COC(=O)CSc1cc(N=c2sc(=O)n3n2CCCC3)c(F)cc1Cl | inconclusive: 20 µM | 
12 | O=C(Nc1ccc([N+](=O)[O-])cc1Cl)c1cc(Cl)ccc1O | inconclusive: 20 µM | 
13 | C=CCOC(Cn1ccnc1)c1ccc(Cl)cc1Cl (stereo unspecified) |  | inactive
14 | CCSC(=O)N(CC(C)C)CC(C)C | inconclusive: 20 µM | 
15 | CCN(CC)C(=O)c1cccc(C)c1 | inconclusive: 20 µM | 

Individual results from the results shown:
CCNc1nc(N)nc(Cl)n1 | AC50: inconclusive: 20 µM
COC(=O)c1ccc(CNS(C)(=O)=O)cc1S(=O)(=O)NC(=O)Nc1nc(OC)cc(OC)n1 | outcome: inactive
